Data from paper PMC10055520.
Results are given in words; binding and its absence hold for the method and conditions named. In cells and extracts the contact can be indirect. Some binding calls cover weakened binding; strength is not graded here. Sequences can lack the tags named with a protein.

By UniProt entry, the sequences of proteins in these tests, tags left out.
UniProt P70210: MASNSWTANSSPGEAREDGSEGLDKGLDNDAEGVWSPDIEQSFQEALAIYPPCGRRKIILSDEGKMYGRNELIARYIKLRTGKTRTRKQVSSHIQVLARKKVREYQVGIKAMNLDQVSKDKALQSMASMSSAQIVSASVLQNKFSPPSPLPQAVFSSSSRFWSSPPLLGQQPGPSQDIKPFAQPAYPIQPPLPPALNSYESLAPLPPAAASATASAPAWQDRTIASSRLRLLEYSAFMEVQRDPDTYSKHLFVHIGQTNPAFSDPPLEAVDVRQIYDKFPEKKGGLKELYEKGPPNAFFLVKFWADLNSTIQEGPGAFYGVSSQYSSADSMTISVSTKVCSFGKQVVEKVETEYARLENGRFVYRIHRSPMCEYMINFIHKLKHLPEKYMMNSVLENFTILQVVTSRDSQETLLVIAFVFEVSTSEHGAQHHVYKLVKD
UniProt P46937: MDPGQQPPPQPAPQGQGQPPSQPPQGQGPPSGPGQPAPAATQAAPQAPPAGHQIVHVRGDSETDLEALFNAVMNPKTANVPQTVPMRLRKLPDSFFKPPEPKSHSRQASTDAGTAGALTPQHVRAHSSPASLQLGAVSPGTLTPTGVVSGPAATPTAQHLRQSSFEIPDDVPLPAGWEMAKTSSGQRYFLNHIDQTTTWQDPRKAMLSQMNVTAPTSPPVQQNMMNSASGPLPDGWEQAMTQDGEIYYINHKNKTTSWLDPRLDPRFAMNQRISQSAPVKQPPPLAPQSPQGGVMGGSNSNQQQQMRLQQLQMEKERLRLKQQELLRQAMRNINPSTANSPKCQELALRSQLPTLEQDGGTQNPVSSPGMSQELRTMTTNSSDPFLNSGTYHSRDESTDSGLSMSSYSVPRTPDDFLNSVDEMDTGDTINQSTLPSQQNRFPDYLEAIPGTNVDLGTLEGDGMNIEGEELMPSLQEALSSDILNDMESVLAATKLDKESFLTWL

Experiments:
[1] = target: MYC-tagged full-length mouse Tead3 (mouse) (UniProt P70210); test: co-IP; HEK293T cells (control, MALAT1-knockout or Malat1-restored) co-transfected with SFB-Nfatc1 and MYC-Tead3; RIPA lysate; pulldown with S-protein beads or a MYC-specific antibody, 4 °C overnight; blots for MYC and FLAG
SFB-YAP = SFB-YAP (UniProt P46937); test: co-IP; HEK293T cells co-transfected with HA-Nfatc1 and SFB-YAP; pulldown with an HA-specific antibody or S-protein beads; blots for FLAG and HA

Row | binding [1] | binding (SFB-YAP) | Binder
1 | binds | – | SFB-tagged full-length mouse Nfatc1 (protein, UniProt O88942 1-717) MPNTSFPVPSKFPLGPPAAVCGSGETLRPAPPSGGTMKAAEEEHYSYVSPSVTSTLPLPTAHSALPAACHDLQTSTPGISAVPSANHPPSYGGAVDSGPSGYFLSSGNTRPNGAPTLESPRIEITSYLGLHHGSGQFFHDVEVEDVLPSCKRSPSTATLHLPSLEAYRDPSCLSPASSLSSRSCNSEASSYESNYSYPYASPQTSPWQSPCVSPKTTDPEEGFPRSLGACHLLGSPRHSPSTSPRASITEESWLGARGSRPTSPCNKRKYSLNGRQPSCSPHHSPTPSPHGSPRVSVTEDTWLGNTTQYTSSAIVAAINALTTDSTLDLGDGVPIKSRKTALEHAPSVALKVEPAGEDLGTTPPTSDFPPEEYTFQHLRKGAFCEQYLSVPQASYQWAKPKSLSPTSYMSPSLPALDWQLPSHSGPYELRIEVQPKSHHRAHYETEGSRGAVKASAGGHPIVQLHGYLENEPLTLQLFIGTADDRLLRPHAFYQVHRITGKTVSTTSHEIILSNTKVLEIPLLPENNMRAIIDCAGILKLRNSDIELRKGETDIGRKNTRVRLVFRVHIPQPNGRTLSLQVASNPIECSQRSAQELPLVEKQSTDSYPVIGGKKMVLSGHNFLQDSKVIFVEKAPDGHHVWEMEAKTDRDLCKPNSLVVEIPPFRNQRITSPAQVSFYVCNGKRKRSQYQRFTYLPANGNSVFLTLSSESELRGGFY
2 | – | no binding | HA-Nfatc1 (protein, UniProt O88942 1-717) MPNTSFPVPSKFPLGPPAAVCGSGETLRPAPPSGGTMKAAEEEHYSYVSPSVTSTLPLPTAHSALPAACHDLQTSTPGISAVPSANHPPSYGGAVDSGPSGYFLSSGNTRPNGAPTLESPRIEITSYLGLHHGSGQFFHDVEVEDVLPSCKRSPSTATLHLPSLEAYRDPSCLSPASSLSSRSCNSEASSYESNYSYPYASPQTSPWQSPCVSPKTTDPEEGFPRSLGACHLLGSPRHSPSTSPRASITEESWLGARGSRPTSPCNKRKYSLNGRQPSCSPHHSPTPSPHGSPRVSVTEDTWLGNTTQYTSSAIVAAINALTTDSTLDLGDGVPIKSRKTALEHAPSVALKVEPAGEDLGTTPPTSDFPPEEYTFQHLRKGAFCEQYLSVPQASYQWAKPKSLSPTSYMSPSLPALDWQLPSHSGPYELRIEVQPKSHHRAHYETEGSRGAVKASAGGHPIVQLHGYLENEPLTLQLFIGTADDRLLRPHAFYQVHRITGKTVSTTSHEIILSNTKVLEIPLLPENNMRAIIDCAGILKLRNSDIELRKGETDIGRKNTRVRLVFRVHIPQPNGRTLSLQVASNPIECSQRSAQELPLVEKQSTDSYPVIGGKKMVLSGHNFLQDSKVIFVEKAPDGHHVWEMEAKTDRDLCKPNSLVVEIPPFRNQRITSPAQVSFYVCNGKRKRSQYQRFTYLPANGNSVFLTLSSESELRGGFY
